Patent US20060286112A1
Numbering of substitutions follows the chain as printed. No constants are given. Whether binding was seen depends on the method and setting. Some entries that bind do so weakly or less than the wild type.

The chains behind the UniProt entries cited, without tags or fusion partners. Residues count along the entry.
UniProt P56199, residues 29-1179: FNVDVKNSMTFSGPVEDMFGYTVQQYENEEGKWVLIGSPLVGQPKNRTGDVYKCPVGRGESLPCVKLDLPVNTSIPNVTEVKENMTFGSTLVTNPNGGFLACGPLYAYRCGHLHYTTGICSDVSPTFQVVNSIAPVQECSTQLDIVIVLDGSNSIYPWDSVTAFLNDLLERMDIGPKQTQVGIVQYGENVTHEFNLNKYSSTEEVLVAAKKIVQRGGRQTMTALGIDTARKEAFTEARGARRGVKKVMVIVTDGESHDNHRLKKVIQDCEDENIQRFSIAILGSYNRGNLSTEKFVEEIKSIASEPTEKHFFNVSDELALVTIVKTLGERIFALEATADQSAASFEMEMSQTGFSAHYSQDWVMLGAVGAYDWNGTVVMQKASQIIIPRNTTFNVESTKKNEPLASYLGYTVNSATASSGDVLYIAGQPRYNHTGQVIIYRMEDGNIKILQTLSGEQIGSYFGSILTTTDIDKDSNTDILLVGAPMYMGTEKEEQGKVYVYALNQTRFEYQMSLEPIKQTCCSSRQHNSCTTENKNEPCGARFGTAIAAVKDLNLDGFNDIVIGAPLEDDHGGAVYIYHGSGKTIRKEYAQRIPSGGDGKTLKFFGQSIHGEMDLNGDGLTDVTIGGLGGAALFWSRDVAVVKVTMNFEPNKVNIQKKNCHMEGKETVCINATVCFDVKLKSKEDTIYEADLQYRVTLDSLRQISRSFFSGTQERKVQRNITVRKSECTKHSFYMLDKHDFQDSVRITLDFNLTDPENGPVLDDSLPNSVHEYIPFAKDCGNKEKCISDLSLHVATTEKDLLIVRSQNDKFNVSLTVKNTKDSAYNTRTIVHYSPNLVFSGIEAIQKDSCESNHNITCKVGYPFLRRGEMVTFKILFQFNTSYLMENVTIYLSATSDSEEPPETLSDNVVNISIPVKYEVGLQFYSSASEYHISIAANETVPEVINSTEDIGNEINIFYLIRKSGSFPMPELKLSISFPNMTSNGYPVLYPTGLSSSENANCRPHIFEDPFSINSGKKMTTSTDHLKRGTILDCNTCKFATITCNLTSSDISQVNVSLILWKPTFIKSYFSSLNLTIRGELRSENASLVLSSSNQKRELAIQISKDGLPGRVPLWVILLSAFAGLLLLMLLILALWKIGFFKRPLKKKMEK

B1: 10.1 (antibody, V domains shown)
VH: QVQLQQSGPGLVKPSETLSLTCTVSGASISSYYWSWIRQPAGKGLEWIGRIYASGSTNYNPSLKSRVTMSVDTSKSQFSLNLSSVTAADTAVYYCAREGWERLQDYYYYGLDVWGQGTTVTVSS
VL: EIVLTQSPGTLSLSPGERATLSCRASQSVSRNYLAWNQQKPGQAPRLLIYGASSRATGIPDRFSGSGSGTDFTLTISRLEPEDFAVYYCQQYGSSPLTFGGGTKVEIK
B2: 2.19 (antibody, V domains shown)
VH: QVQLQESGPGLVKPSETLSLTCTVSGDSISSYYWSWIRQPPGKGLEWIGYVYYSGSTNYNPSLKSRVTMSVDTSKNQFSLKLSSVTAADTAVYYCARDLELYAFDIWGQGTMVTVSS
VL: B1 VL with S7F, A19V, R31S, N32T, L34V, A35V, N37Y, Y92H, L97W, G101Q
B3: 2.7 (antibody, V domains shown)
VH: EVQLVESGGGLVKPGGSLRLSCAASGFTFSNAWMSWVRQAPGKGLEWVGRIKRKTDGETTDYAAPVKGRFTISRDDSRNTLYLQMNSLKTEDTAVYYCTIYTYYYGMDVWGQGTTVTVSS
VL: DIQMTQSPSSLSASVGDRVTITCRASQSINNYLNWYQQKPGKAPKLLIYAASSLESGVPSRFSGSGSGTDFTLTISSLQPEDFATYYCQQSYSTPPTFGQGTKVEIK
B4: 6.17 (antibody, V domains shown)
VH: EVQLVQSGAEVKKPGESLRISCKGSGYSVSSYWIGWVRQMPGKGLEWMGIIYPGDSDTRYSPSFQGQVTISADKSISTAFLQWISLKASDTAMYYCARLQGDCSGGSCYGHFDYWGQGTLVTVS
VL: EIVLTQSPGTLSLSPGERATLSCRASQTISSGYLAWYQQKPAQAPRLLIYVASRRATGIPDRFSGSGSGTDFTLTISRLEPEDFAVYYCQQYGSSSWTFGQGTTVEIK
B5: 6.18 (antibody, V domains shown)
VH: B4 VH with S30T, F80Y, I84S, S107T
VL: B4 VL with T28S, I29V, G32S, S94T
B6: 6.48 (antibody, V domains shown)
VH: B4 VH with Y114C
VL: DVVLTQSPLSLPVTLGQPASISCRSSQSLVNSDGDTYLSWFQQWPGQSPRRLFYEVSNWDSGVPDRFSGSGSGTDFTLKISRVEAEDVGVYYCMQGTHWLTFGGGTKVEIK

biological target: human VLA-1 α1 subunit (CD49a), full-length, on transfected CHO cells (human) (UniProt P56199); assay: FACS on CHO-α1 cells

binding, binds:
B1

biological target: cynomolgus VLA-1 on IL-2 stimulated cynomolgus PBMC (cynomolgus (Macaca fascicularis)) (UniProt F7GLS1); assay: FACS on IL-2 stimulated cynomolgus PBMC

binding, binds:
B1
B2
B3
B4
B5
B6
